Data reported in patent US20190023658A1, “SUBSTITUTED 2-DIFLUOROMETHYL-NICOTIN(THIO)CARBOXANILIDE DERIVATIVES AND THEIR USE AS FUNGICIDES” (Bayer CropScience Aktiengesellschaft, priority 2015, published 2019).
Some of these results come from one statement about several compounds together.

How the values were obtained:
Puccinia recondita = test: In vivo preventive test on Puccinia recondita (brown rust on wheat); details: 100 ppm of active ingredient; wheat plants, preventive spray, evaluated 11 days after inoculation
Experimental: (§1) Example: In Vivo Preventive Test on Puccinia recondita (Brown Rust on Wheat) [table] The active ingredients are made soluble and homogenized in a mixture of Dimethyl sulfoxide/Acetone/Tween® 80 and then diluted in water to the desired concentration. The young plants of wheat are treated by spraying the active ingredient prepared as described above. Control plants are treated only with an aqueous solution of Acetone/Dimethyl sulfoxide/Tween® 80. After 24 hours, the plants are contaminated by spraying the leaves with an aqueous suspension of Puccinia recondita spores. The contaminated wheat plants are incubated for 24 hours at 20° C. and at 100% relative humidity and then for 10 days at 20° C. and at 70-80% relative humidity. The test is evaluated 11 days after the inoculation. 0% means an efficacy which corresponds to that of the control plants while an efficacy of 100% means that no disease is observed.

Septoria tritici = test: In vivo preventive test on Septoria tritici (leaf spot on wheat); details: wheat plants, preventive spray, evaluated 24 days after inoculation
Uromyces appendiculatus = test: In vivo preventive test on Uromyces appendiculatus (bean rust); details: 100 ppm of active ingredient; bean plants, preventive spray, evaluated 11 days after inoculation
Experimental: as §1, with “Uromyces appendiculatus (Bean Rust)” for “Puccinia recondita (Brown Rust on Wheat)”, “bean” for “wheat”, “Uromyces appendiculatus” for “Puccinia recondita”

Sphaerotheca fuliginea = test: In vivo preventive test on Sphaerotheca fuliginea (powdery mildew on cucurbits); details: 100 ppm of active ingredient; gherkin plants, preventive spray, evaluated 15 days after inoculation
Pyrenophora teres = test: In vivo preventive test on Pyrenophora teres (net blotch on barley); details: 100 ppm of active ingredient; barley plants, preventive spray, evaluated 14 days after inoculation
Alternaria brassicae = test: In vivo preventive test on Alternaria brassicae (leaf spot on radish); details: 100 ppm of active ingredient; radish plants, preventive spray, evaluated 6 days after inoculation

Measured: efficacy

Cc1ccc(Oc2ccccc2NC(=O)c2cccnc2C(F)F)cc1 [Example I-01, 2-(difluoromethyl)-N-[2-(4-methylphenoxy)phenyl]nicotinamide]
at least 70%: Puccinia recondita

Cc1ccccc1Oc1ccccc1NC(=O)c1cccnc1C(F)F [Example I-02]
at least 70%: Puccinia recondita

O=C(Nc1ccccc1Oc1ccc(Cl)cc1)c1cccnc1C(F)F [Example I-03]
at least 70%: Puccinia recondita | Septoria tritici; 100 ppm of active ingredient | Uromyces appendiculatus | Sphaerotheca fuliginea

O=C(Nc1ccccc1Oc1cc(F)cc(C(F)(F)F)c1)c1cccnc1C(F)F [Example I-04]
at least 70%: Puccinia recondita | Septoria tritici; 100 ppm of active ingredient | Uromyces appendiculatus | Sphaerotheca fuliginea

COc1cccc(Oc2ccccc2NC(=O)c2cccnc2C(F)F)c1 [Example I-05]
at least 70%: Puccinia recondita

O=C(Nc1ccccc1Oc1cccc(Cl)c1)c1cccnc1C(F)F [Example I-06]
at least 70%: Puccinia recondita | Septoria tritici; 100 ppm of active ingredient | Uromyces appendiculatus

O=C(Nc1ccccc1Oc1ccc(C(F)(F)F)cc1)c1cccnc1C(F)F [Example I-07]
at least 70%: Puccinia recondita | Septoria tritici; 100 ppm of active ingredient | Uromyces appendiculatus | Sphaerotheca fuliginea | Pyrenophora teres | Alternaria brassicae

O=C(Nc1ccccc1Oc1cccc(F)c1F)c1cccnc1C(F)F [Example I-08]
at least 70%: Puccinia recondita | Septoria tritici; 100 ppm of active ingredient | Uromyces appendiculatus | Sphaerotheca fuliginea | Pyrenophora teres

O=C(Nc1ccccc1Sc1ccccc1)c1cccnc1C(F)F [Example I-11]
at least 70%: Puccinia recondita | Septoria tritici; 10 ppm of active ingredient

O=C(Nc1ccccc1Oc1cc(F)cc(F)c1)c1cccnc1C(F)F [Example I-12]
at least 70%: Puccinia recondita | Septoria tritici; 100 ppm of active ingredient | Uromyces appendiculatus | Sphaerotheca fuliginea | Pyrenophora teres

COc1ccc(Oc2ccccc2NC(=O)c2cccnc2C(F)F)cc1 [Example I-13]
at least 70%: Puccinia recondita

O=C(Nc1ccccc1Sc1ccc(Cl)cc1)c1cccnc1C(F)F [Example I-14]
at least 70%: Puccinia recondita

O=C(Nc1ccccc1Oc1ccccc1F)c1cccnc1C(F)F [Example I-15]
at least 70%: Puccinia recondita | Septoria tritici; 100 ppm of active ingredient | Uromyces appendiculatus

O=C(Nc1ccccc1Oc1ccc(F)c(F)c1)c1cccnc1C(F)F [Example I-16]
at least 70%: Puccinia recondita | Septoria tritici; 100 ppm of active ingredient | Uromyces appendiculatus | Sphaerotheca fuliginea

O=C(Nc1ccccc1Oc1cccc(C(F)(F)F)c1)c1cccnc1C(F)F [Example I-18]
at least 70%: Puccinia recondita | Septoria tritici; 100 ppm of active ingredient | Uromyces appendiculatus | Sphaerotheca fuliginea | Pyrenophora teres

Cc1cccc(Oc2ccccc2NC(=O)c2cccnc2C(F)F)c1 [Example I-19]
at least 70%: Puccinia recondita | Uromyces appendiculatus

O=C(Nc1ccccc1Oc1ccccc1)c1cccnc1C(F)F [Example I-20]
at least 70%: Puccinia recondita | Septoria tritici; 100 ppm of active ingredient

COc1ccccc1Oc1ccccc1NC(=O)c1cccnc1C(F)F [Example I-21]
at least 70%: Septoria tritici; 10 ppm of active ingredient

O=C(Nc1cccc(Cl)c1Oc1ccccc1)c1cccnc1C(F)F [Example I-22]
at least 70%: Septoria tritici; 100 ppm of active ingredient

O=C(Nc1ccccc1Oc1cc(Cl)cc(Cl)c1)c1cccnc1C(F)F [Example I-25]
at least 70%: Puccinia recondita | Septoria tritici; 100 ppm of active ingredient | Uromyces appendiculatus | Sphaerotheca fuliginea

O=C(Nc1ccccc1Oc1ccccc1Cl)c1cccnc1C(F)F [Example I-26]
at least 70%: Puccinia recondita | Uromyces appendiculatus | Sphaerotheca fuliginea

O=C(Nc1ccccc1Oc1cccc(F)c1)c1cccnc1C(F)F [Example I-27]
at least 70%: Puccinia recondita | Septoria tritici; 100 ppm of active ingredient | Uromyces appendiculatus

O=C(Nc1ccccc1Oc1ccc(F)cc1)c1cccnc1C(F)F [Example I-28]
at least 70%: Puccinia recondita | Septoria tritici; 100 ppm of active ingredient | Uromyces appendiculatus | Sphaerotheca fuliginea

O=C(Nc1ccccc1Oc1ccc(Br)cc1)c1cccnc1C(F)F [Example I-30]
at least 70%: Puccinia recondita | Uromyces appendiculatus | Sphaerotheca fuliginea

O=C(Nc1ccc(F)cc1-c1ccc(Cl)c(Cl)c1)c1c(C(F)F)ccnc1C(F)F [Example I-31]
at least 70%: Septoria tritici; 100 ppm of active ingredient

CON=Cc1c(F)cc(-c2cccc(F)c2NC(=O)c2cccnc2C(F)F)cc1F [Example I-33]
at least 70%: Puccinia recondita | Septoria tritici; 100 ppm of active ingredient | Uromyces appendiculatus | Sphaerotheca fuliginea | Pyrenophora teres

O=C(Nc1ccccc1-c1cccc(C(F)(F)F)c1)c1cccnc1C(F)F [Example I-39]
at least 70%: Puccinia recondita | Septoria tritici; 100 ppm of active ingredient | Uromyces appendiculatus | Sphaerotheca fuliginea | Pyrenophora teres | Alternaria brassicae

O=C(Nc1ccccc1-c1ccc(F)cc1F)c1cccnc1C(F)F [Example I-45]
at least 70%: Puccinia recondita | Septoria tritici; 100 ppm of active ingredient | Sphaerotheca fuliginea

O=C(Nc1ccc(F)cc1-c1ccc(F)cc1)c1cccnc1C(F)F [Example I-47]
at least 70%: Septoria tritici; 100 ppm of active ingredient | Sphaerotheca fuliginea

O=C(Nc1ccccc1-c1cccc(Cl)c1)c1cccnc1C(F)F [Example I-52]
at least 70%: Puccinia recondita | Septoria tritici; 100 ppm of active ingredient | Uromyces appendiculatus | Sphaerotheca fuliginea | Pyrenophora teres

O=C(Nc1ccccc1-c1cc(Cl)cc(Cl)c1)c1cccnc1C(F)F [Example I-53]
at least 70%: Puccinia recondita | Septoria tritici; 100 ppm of active ingredient | Uromyces appendiculatus | Sphaerotheca fuliginea | Pyrenophora teres | Alternaria brassicae

COC(=N)c1c(F)cc(-c2cc(F)ccc2NC(=O)c2cccnc2C(F)F)cc1F [Example I-55]
at least 70%: Puccinia recondita | Septoria tritici; 100 ppm of active ingredient | Uromyces appendiculatus | Sphaerotheca fuliginea | Alternaria brassicae

CSc1ccc(-c2ccccc2NC(=O)c2cccnc2C(F)F)cc1 [Example I-56]
at least 70%: Puccinia recondita

CCON=Cc1c(F)cc(-c2cccc(F)c2NC(=O)c2cccnc2C(F)F)cc1F [Example I-60]
at least 70%: Septoria tritici; 100 ppm of active ingredient | Uromyces appendiculatus | Sphaerotheca fuliginea | Pyrenophora teres | Alternaria brassicae

O=C(Nc1ccccc1-c1ccccc1)c1cccnc1C(F)F [Example I-61]
at least 70%: Puccinia recondita | Septoria tritici; 100 ppm of active ingredient | Sphaerotheca fuliginea

CCON=Cc1c(F)cc(-c2cc(F)ccc2NC(=O)c2cccnc2C(F)F)cc1F [Example I-65]
at least 70%: Uromyces appendiculatus | Sphaerotheca fuliginea | Alternaria brassicae

COC(=N)c1c(F)cc(-c2cc(F)ccc2NC(=S)c2cccnc2C(F)F)cc1F [Example I-69]
at least 70%: Puccinia recondita | Septoria tritici; 100 ppm of active ingredient | Uromyces appendiculatus | Sphaerotheca fuliginea | Pyrenophora teres | Alternaria brassicae

CCON=Cc1c(F)cc(-c2cc(F)ccc2NC(=S)c2cccnc2C(F)F)cc1F [Example I-70]
at least 70%: Puccinia recondita | Septoria tritici; 100 ppm of active ingredient | Uromyces appendiculatus | Sphaerotheca fuliginea | Alternaria brassicae

N#Cc1c(F)cc(-c2ccccc2NC(=S)c2cccnc2C(F)F)cc1F [Example I-71]
at least 70%: Puccinia recondita | Uromyces appendiculatus | Sphaerotheca fuliginea | Pyrenophora teres

CCON=Cc1c(F)cc(-c2cccc(F)c2NC(=S)c2cccnc2C(F)F)cc1F [Example I-72]
at least 70%: Puccinia recondita | Uromyces appendiculatus | Sphaerotheca fuliginea | Alternaria brassicae
